Laboratory results: PubChem BioAssay AID504784 (Drosophila RNAi Screening Center, 2011)
The screen tested about 17,000 reagents; this is an unselected part of those that have a named target and a result. 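Each column is one replicate's B-score; the combined score over replicates was not deposited, so single values may mislead.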 Reagents against one gene are numbered here. A plus sign joins genes that one reagent is predicted to hit. Not all columns of the deposit are shown.

- Test: 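Fly genes whose silencing alters how much lipid cells keep in droplets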 (primary screen)
- System: Drosophila Kc167 embryonic cells
- Knock-down reagent: long dsRNA against Drosophila genes, about 250 ng dsRNA per well
- Duration: 4 days
- Treatment: cells fed 400 µM oleic acid bound to BSA
- Measured: 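Cells imaged and segmented; ratio of lipid droplet area to nuclear area, log-transformed, then normalised as a B-score over the screen; higher means more stored lipid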
- Reading the numbers: droplet/nuclear area B-score: higher = more stored lipid (overstorage)

For Mvl, what was measured?
droplet/nuclear area B-score, replicate 1: 0.269

What is on record for CG9021?
droplet/nuclear area B-score, replicate 1: -0.361

Which result is listed for tkv + CR14033 + tRNA:Asp-GTC-2-1 + 1 more?
droplet/nuclear area B-score, replicate 1: 0.0344

For CG15362, what was measured?
droplet/nuclear area B-score, replicate 1: 1.75

Which result is listed for BomS2?
droplet/nuclear area B-score, replicate 1: 0.715

What did the screen give for TTLL5?
droplet/nuclear area B-score, replicate 1: -0.506

What is on record for asRNA:CR31084?
droplet/nuclear area B-score, replicate 1: 0.632

How did the screen score COX6AL2?
droplet/nuclear area B-score, replicate 1: -0.657

For GEFmeso #1, what does the deposit list?
droplet/nuclear area B-score, replicate 1: 0.0712

Which result is listed for GEFmeso #2?
droplet/nuclear area B-score, replicate 1: -0.0762

What is on record for GEFmeso #3?
droplet/nuclear area B-score, replicate 1: 0.994

For Yp1, what does the deposit list?
droplet/nuclear area B-score, replicate 1: 0.877

How did the screen score CG15199?
droplet/nuclear area B-score, replicate 1: -3.2

With ItgaPS5, what was measured?
droplet/nuclear area B-score, replicate 1: 0.0203

With CG30043, how do the results read?
droplet/nuclear area B-score, replicate 1: -0.774

For CG14537, how do the results read?
droplet/nuclear area B-score, replicate 1: 0.482

What did the screen give for Klp3A #1?
droplet/nuclear area B-score, replicate 1: 1.4

What is on record for Klp3A #2?
droplet/nuclear area B-score, replicate 1: -0.75

How did the screen score CG40005 (retired record) + cta?
droplet/nuclear area B-score, replicate 1: 3

For Dok, what does the deposit list?
droplet/nuclear area B-score, replicate 1: 2.66

How did the screen score Gcna?
droplet/nuclear area B-score, replicate 1: 0.109

What did the screen give for ergic53?
droplet/nuclear area B-score, replicate 1: -0.0174

What is on record for Dci?
droplet/nuclear area B-score, replicate 1: -0.771

For Ctu1, what does the deposit list?
droplet/nuclear area B-score, replicate 1: 0.086

With Naa15-16 #1, what does the deposit list?
droplet/nuclear area B-score, replicate 1: -1.07

How did the screen score Naa15-16 #2?
droplet/nuclear area B-score, replicate 1: 0.926

For CG13887, how do the results read?
droplet/nuclear area B-score, replicate 1: 2.12

What is on record for Tina-1?
droplet/nuclear area B-score, replicate 1: -0.649

What did the screen give for vkg?
droplet/nuclear area B-score, replicate 1: 2.37

With CG18577, what was measured?
droplet/nuclear area B-score, replicate 1: -0.214

What is on record for Phyhd1?
droplet/nuclear area B-score, replicate 1: -0.683

What did the screen give for CG14315?
droplet/nuclear area B-score, replicate 1: 0.235

With Bdbt, what does the deposit list?
droplet/nuclear area B-score, replicate 1: 0.69

What is on record for fuss #1?
droplet/nuclear area B-score, replicate 1: -0.0362

For fuss #2, what does the deposit list?
droplet/nuclear area B-score, replicate 1: -0.758

Which result is listed for CG13733?
droplet/nuclear area B-score, replicate 1: 0.339

What did the screen give for CG4820?
droplet/nuclear area B-score, replicate 1: -1.32

For CG10366, how do the results read?
droplet/nuclear area B-score, replicate 1: -0.0849

What is on record for Rab9Fb?
droplet/nuclear area B-score, replicate 1: -1.71

What did the screen give for Rilpl?
droplet/nuclear area B-score, replicate 1: 0.714

Which result is listed for CG33630?
droplet/nuclear area B-score, replicate 1: -2.04

What is on record for CG9822?
droplet/nuclear area B-score, replicate 1: -0.582

For RpL6 #1, what does the deposit list?
droplet/nuclear area B-score, replicate 1: 2.44

What did the screen give for RpL6 #2?
droplet/nuclear area B-score, replicate 1: -2.69

What is on record for CG31220?
droplet/nuclear area B-score, replicate 1: 0.491

Which result is listed for NimB2?
droplet/nuclear area B-score, replicate 1: -0.714

What is on record for RpL37A?
droplet/nuclear area B-score, replicate 1: 0.507

What is on record for TwdlV?
droplet/nuclear area B-score, replicate 1: -0.517

For CG31370, what was measured?
droplet/nuclear area B-score, replicate 1: -1.75

What did the screen give for CG34166?
droplet/nuclear area B-score, replicate 1: 1.67

Which result is listed for Mks1?
droplet/nuclear area B-score, replicate 1: 1.12
